Results deposited as PubChem BioAssay AID720710 (VTT Finland, 2013).
Here is an unselected part of about 1,380 deposited reagents. 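One array per condition without replicates; hydroxyurea arrays received 2 mM for 16 h plus 3 h recovery.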 Reagents against one gene are numbered here. Not all columns of the deposit are shown. No sequences are given here.

Test: 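Genes whose loss lowers DNA synthesis when an oncogene drives replication stress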 (primary screen)
Cell system: human U-2 OS bone cancer cells, parental and a cyclin E (CCNE1) overexpressing line
Knock-down reagent: single siRNA against human genes, 1 µM siRNA in the printed spot mix
Timing: 67 h
Conditions: half the arrays: hydroxyurea 2 mM for 16 h, then 3 h recovery; other arrays untreated
Read-out: 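DNA synthesis measured as imaged EdU uptake per nucleus (DAPI) at 67 h, normalised to subgrid median and given as z-score versus non-targeting controls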
Scale: EdU z-score, cyclin E line, hydroxyurea and EdU z-score, parental, hydroxyurea: higher = more DNA synthesis than non-targeting controls

With H2AC6 (H2A clustered histone 6) #1, what does the deposit list?
EdU z-score, cyclin E line, hydroxyurea: 0.583; EdU z-score, parental, hydroxyurea: -2.97

With H2AC6 (H2A clustered histone 6) #2, what was measured?
EdU z-score, cyclin E line, hydroxyurea: 2.03; EdU z-score, parental, hydroxyurea: 1.09

With ESCO1 #1, how do the results read?
EdU z-score, cyclin E line, hydroxyurea: -0.937; EdU z-score, parental, hydroxyurea: 0.00596

For ESCO1 #2, what was measured?
EdU z-score, cyclin E line, hydroxyurea: 1.87; EdU z-score, parental, hydroxyurea: 3.24

With TLK1 (tousled like kinase 1) #1, what was measured?
EdU z-score, cyclin E line, hydroxyurea: -0.621; EdU z-score, parental, hydroxyurea: -1.86

For TLK1 (tousled like kinase 1) #2, what was measured?
EdU z-score, cyclin E line, hydroxyurea: -0.379; EdU z-score, parental, hydroxyurea: 0.739

With NSD1 (nuclear receptor binding SET domain protein 1) #1, what does the deposit list?
EdU z-score, cyclin E line, hydroxyurea: -0.647; EdU z-score, parental, hydroxyurea: -1.27

For NSD1 (nuclear receptor binding SET domain protein 1) #2, how do the results read?
EdU z-score, cyclin E line, hydroxyurea: -0.277; EdU z-score, parental, hydroxyurea: 2.7

How did the screen score BBC3 (BCL2 binding component 3) #1?
EdU z-score, cyclin E line, hydroxyurea: -1.03; EdU z-score, parental, hydroxyurea: -1.3

What did the screen give for BBC3 (BCL2 binding component 3) #2?
EdU z-score, cyclin E line, hydroxyurea: -0.856; EdU z-score, parental, hydroxyurea: -0.283

For TMX1 (thioredoxin related transmembrane protein 1) #1, how do the results read?
EdU z-score, cyclin E line, hydroxyurea: -0.984; EdU z-score, parental, hydroxyurea: 0.00648

What is on record for TMX1 (thioredoxin related transmembrane protein 1) #2?
EdU z-score, cyclin E line, hydroxyurea: 0.854; EdU z-score, parental, hydroxyurea: 1.09

Which result is listed for CBX1 (chromobox 1) #1?
EdU z-score, cyclin E line, hydroxyurea: -0.697; EdU z-score, parental, hydroxyurea: -1.76

Which result is listed for CBX1 (chromobox 1) #2?
EdU z-score, cyclin E line, hydroxyurea: 0.575; EdU z-score, parental, hydroxyurea: -0.613

What is on record for RBX1 (ring-box 1) #1?
EdU z-score, cyclin E line, hydroxyurea: -1.11; EdU z-score, parental, hydroxyurea: 0.422

With RBX1 (ring-box 1) #2, what does the deposit list?
EdU z-score, cyclin E line, hydroxyurea: 0.933; EdU z-score, parental, hydroxyurea: 1.61

How did the screen score ZWINT (ZW10 interacting kinetochore protein) #1?
EdU z-score, cyclin E line, hydroxyurea: -0.493; EdU z-score, parental, hydroxyurea: -1.27

How did the screen score ZWINT (ZW10 interacting kinetochore protein) #2?
EdU z-score, cyclin E line, hydroxyurea: 0.591; EdU z-score, parental, hydroxyurea: -0.209

With S100A11 (S100 calcium binding protein A11) #1, how do the results read?
EdU z-score, cyclin E line, hydroxyurea: -1.63; EdU z-score, parental, hydroxyurea: -3.18

With S100A11 (S100 calcium binding protein A11) #2, how do the results read?
EdU z-score, cyclin E line, hydroxyurea: -0.546; EdU z-score, parental, hydroxyurea: -0.95

What did the screen give for WDR36 (WD repeat domain 36) #1?
EdU z-score, cyclin E line, hydroxyurea: -1.23; EdU z-score, parental, hydroxyurea: -2.87

For WDR36 (WD repeat domain 36) #2, what was measured?
EdU z-score, cyclin E line, hydroxyurea: -0.638; EdU z-score, parental, hydroxyurea: -2

With RNF216 (ring finger protein 216) #1, what was measured?
EdU z-score, cyclin E line, hydroxyurea: -3.64; EdU z-score, parental, hydroxyurea: -2.73

With RNF216 (ring finger protein 216) #2, what was measured?
EdU z-score, cyclin E line, hydroxyurea: 0.0861; EdU z-score, parental, hydroxyurea: 1.53

With CDT1 (chromatin licensing and DNA replication factor 1) #1, how do the results read?
EdU z-score, cyclin E line, hydroxyurea: -0.497; EdU z-score, parental, hydroxyurea: -1.93

For CDT1 (chromatin licensing and DNA replication factor 1) #2, how do the results read?
EdU z-score, cyclin E line, hydroxyurea: -0.359; EdU z-score, parental, hydroxyurea: -1.86

What is on record for REV1 (REV1 DNA directed polymerase) #1?
EdU z-score, cyclin E line, hydroxyurea: 2.06; EdU z-score, parental, hydroxyurea: 1.24

Which result is listed for REV1 (REV1 DNA directed polymerase) #2?
EdU z-score, cyclin E line, hydroxyurea: 2.78; EdU z-score, parental, hydroxyurea: 3.24

Which result is listed for MSH2 (mutS homolog 2) #1?
EdU z-score, cyclin E line, hydroxyurea: -0.391; EdU z-score, parental, hydroxyurea: -2.25

With MSH2 (mutS homolog 2) #2, what was measured?
EdU z-score, cyclin E line, hydroxyurea: 0.83; EdU z-score, parental, hydroxyurea: 1.71

What did the screen give for NDC80 (NDC80 kinetochore complex component) #1?
EdU z-score, cyclin E line, hydroxyurea: 0.137; EdU z-score, parental, hydroxyurea: -2.26

What did the screen give for NDC80 (NDC80 kinetochore complex component) #2?
EdU z-score, cyclin E line, hydroxyurea: 0.311; EdU z-score, parental, hydroxyurea: -0.577

Sorted by “EdU z-score, parental, hydroxyurea” (ascending): some entries from above
WDR36 (WD repeat domain 36) #1: EdU z-score, cyclin E line, hydroxyurea = -1.23; EdU z-score, parental, hydroxyurea = -2.87
RNF216 (ring finger protein 216) #1: EdU z-score, cyclin E line, hydroxyurea = -3.64; EdU z-score, parental, hydroxyurea = -2.73
WDR36 (WD repeat domain 36) #2: EdU z-score, cyclin E line, hydroxyurea = -0.638; EdU z-score, parental, hydroxyurea = -2
CDT1 (chromatin licensing and DNA replication factor 1) #1: EdU z-score, cyclin E line, hydroxyurea = -0.497; EdU z-score, parental, hydroxyurea = -1.93
RNF216 (ring finger protein 216) #2: EdU z-score, cyclin E line, hydroxyurea = 0.0861; EdU z-score, parental, hydroxyurea = 1.53
